We go through one molecule from patent US20210363266A1.

Chains of the proteins cited; added tags and fusions are not shown. Lines headed by an entry give the natural chain unless they say otherwise; changes in a name come on top. Residues count along the entry.
UniProt Q07011, residues 24-186: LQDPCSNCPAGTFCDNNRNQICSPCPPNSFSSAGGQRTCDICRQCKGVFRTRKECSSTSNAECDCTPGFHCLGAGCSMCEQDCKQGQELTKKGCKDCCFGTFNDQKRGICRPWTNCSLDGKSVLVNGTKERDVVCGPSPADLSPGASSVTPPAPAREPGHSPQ

The target in the test is human 4-1BB His protein (Sinobiological, Beijing #10041-H08H) (human) (UniProt Q07011). Briefly: SPR Biacore T200. On the technique in general: Surface plasmon resonance follows binding to a sensor surface in real time, without labels.

No constants are given. Whether binding was seen depends on the method and setting. Some entries that bind do so weakly or less than the wild type.

B1: humanized antibody huB1E10 (VH-c heavy chain and VL-c light chain) (antibody, human IgG2, kappa, V domains shown)
VH: EVQLVESGGGVVQPGRSLRLSCAASGFTFGDYYMYWVRQAPGKGLEWVATISEGGSYTYYPDNVKGRFTISRDNAKNTLYLQMNSLRAEDTAVYYCARYYSKALYAMDYWGRGTLVTVSS
VL: EIVLTQSPATLSLSPGERATLSCRASKSVSTSGFSYIHWYQQKPGQPPRLLIYTASNLESGVPARFSGSGSGTDFTLTISSLEPEDFAVYYCQHSRELPLTFGQGTKLEVKR
Turning to B1, the binding entry is recorded as “binds”.
